Results are given in words; binding and its absence hold for the method and conditions named. In cells and extracts the contact can be indirect. These calls come from enrichment with a bait or labelling near it, and not all partners need be listed. For some assays here: No binding means not detected with the bait.
Experiments:
[1] = molecular target: t-SNARE protein SNAP-23 (human (endogenous in CFBE41o-6.2 and CFBE41o)) (UniProt O00161); test: affinity purification with mass spectrometry
[2] = molecular target: t-SNARE protein SNAP-23 (human (endogenous in CFBE41o-6.2 and CFBE41o)) (UniProt O00161); test: condition: only in ΔF508-CFTR CF HBE cells

Chains of the proteins cited; added tags and fusions are not shown.
UniProt O00161: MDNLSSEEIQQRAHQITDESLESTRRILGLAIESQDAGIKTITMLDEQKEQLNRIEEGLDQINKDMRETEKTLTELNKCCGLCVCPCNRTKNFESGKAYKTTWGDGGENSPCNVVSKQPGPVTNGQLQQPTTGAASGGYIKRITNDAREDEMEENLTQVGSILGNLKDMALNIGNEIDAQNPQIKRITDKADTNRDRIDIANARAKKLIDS
UniProt P46940: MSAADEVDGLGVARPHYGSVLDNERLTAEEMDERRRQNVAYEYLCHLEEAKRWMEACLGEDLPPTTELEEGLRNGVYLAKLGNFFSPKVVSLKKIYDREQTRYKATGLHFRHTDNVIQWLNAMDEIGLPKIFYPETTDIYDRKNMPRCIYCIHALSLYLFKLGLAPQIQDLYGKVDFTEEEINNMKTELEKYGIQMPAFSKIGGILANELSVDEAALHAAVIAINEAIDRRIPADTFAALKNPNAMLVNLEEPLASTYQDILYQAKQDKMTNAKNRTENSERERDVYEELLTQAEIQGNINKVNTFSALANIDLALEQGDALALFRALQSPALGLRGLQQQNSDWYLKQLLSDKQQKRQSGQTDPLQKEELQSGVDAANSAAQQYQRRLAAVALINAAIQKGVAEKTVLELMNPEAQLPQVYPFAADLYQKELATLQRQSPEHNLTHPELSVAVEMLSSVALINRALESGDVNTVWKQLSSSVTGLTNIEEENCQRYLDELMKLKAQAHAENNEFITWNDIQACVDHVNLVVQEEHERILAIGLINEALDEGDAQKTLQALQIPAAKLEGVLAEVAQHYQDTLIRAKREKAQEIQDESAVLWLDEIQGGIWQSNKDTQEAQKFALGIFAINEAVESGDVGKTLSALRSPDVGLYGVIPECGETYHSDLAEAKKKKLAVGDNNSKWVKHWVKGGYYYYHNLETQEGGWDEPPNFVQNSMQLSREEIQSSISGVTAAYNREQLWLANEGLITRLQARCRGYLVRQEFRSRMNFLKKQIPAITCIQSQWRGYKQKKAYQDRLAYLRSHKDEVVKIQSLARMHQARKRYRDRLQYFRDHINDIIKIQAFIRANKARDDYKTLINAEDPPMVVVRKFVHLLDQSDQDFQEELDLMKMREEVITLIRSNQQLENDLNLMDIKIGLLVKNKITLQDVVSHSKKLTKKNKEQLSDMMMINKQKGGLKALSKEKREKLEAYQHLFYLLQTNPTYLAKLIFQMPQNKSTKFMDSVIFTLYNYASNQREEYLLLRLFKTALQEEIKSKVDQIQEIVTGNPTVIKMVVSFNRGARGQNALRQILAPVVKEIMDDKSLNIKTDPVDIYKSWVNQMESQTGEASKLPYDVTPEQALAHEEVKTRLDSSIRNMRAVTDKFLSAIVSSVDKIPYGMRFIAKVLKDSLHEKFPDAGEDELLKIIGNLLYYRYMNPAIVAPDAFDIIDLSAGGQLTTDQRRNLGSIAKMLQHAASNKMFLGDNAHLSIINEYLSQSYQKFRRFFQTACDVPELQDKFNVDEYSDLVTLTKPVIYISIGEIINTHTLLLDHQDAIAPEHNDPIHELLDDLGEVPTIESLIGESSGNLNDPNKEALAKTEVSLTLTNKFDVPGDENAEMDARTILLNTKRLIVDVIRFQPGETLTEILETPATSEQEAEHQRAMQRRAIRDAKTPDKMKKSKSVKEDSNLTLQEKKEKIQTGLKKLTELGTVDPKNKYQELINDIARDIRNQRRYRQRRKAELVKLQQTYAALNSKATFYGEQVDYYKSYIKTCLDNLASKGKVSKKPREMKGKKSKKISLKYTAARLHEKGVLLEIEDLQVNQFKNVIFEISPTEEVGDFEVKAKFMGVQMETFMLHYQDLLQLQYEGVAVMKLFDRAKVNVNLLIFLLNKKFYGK

- binding [1]: binds
- binding [2]: no binding
Substance: Ras GTPase-activating-like protein IQGAP1 (from UniProt P46940 1-1657)

Source: paper doi:10.1101/2023.12.09.570886
